According to paper PMC5833388:
Results are given in words; binding and its absence hold for the method and conditions named. Binding seen in cells or lysates may run through a third protein. Some results given as binding are weak or reduced against the parent protein; the word gives no strength.

Chains of the proteins cited; added tags and fusions are not shown.
UniProt P23804: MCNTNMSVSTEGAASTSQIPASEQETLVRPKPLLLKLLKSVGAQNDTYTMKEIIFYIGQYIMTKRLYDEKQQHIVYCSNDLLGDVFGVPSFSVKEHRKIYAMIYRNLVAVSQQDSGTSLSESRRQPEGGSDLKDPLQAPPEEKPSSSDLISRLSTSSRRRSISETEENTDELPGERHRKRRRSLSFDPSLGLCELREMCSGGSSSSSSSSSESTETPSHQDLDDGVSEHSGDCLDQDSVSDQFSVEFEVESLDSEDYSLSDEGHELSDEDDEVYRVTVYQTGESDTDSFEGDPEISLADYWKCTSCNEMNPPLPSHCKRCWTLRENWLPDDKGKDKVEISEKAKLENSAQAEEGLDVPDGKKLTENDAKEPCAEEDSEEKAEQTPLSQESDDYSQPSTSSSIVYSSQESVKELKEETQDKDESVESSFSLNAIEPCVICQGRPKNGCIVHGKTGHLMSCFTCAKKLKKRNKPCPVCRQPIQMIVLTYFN

Target: Mdm2 (mouse (endogenous in MEFs)) (UniProt P23804)
Experiment: co-IP; endogenous proteins in lysates of Rps27l+/+;Trp53+/- and Rps27l-/-;Trp53+/- MEFs, untreated or irradiated at 5 Gy and harvested at indicated time points; immunoprecipitation with Mdm2 or Nbs1 antibody, then immunoblot

- binding: binds
B1: Nbs1 (protein, UniProt Q9R207 1-751)
chain: MWKLLPAAGAAPGEPYRLLAGVEYVVGRKNCGILIENDQSISRNHAVLTVNFPVTSLSQTDEIPTLTIKDNSKYGTFVNEEKMQTGLSCTLKTGDRVTFGVFESKFRVEYEPLVVCSSCLDVSGKTVLNQAILQLGGLTANNWTEECTHLVMSAVKVTIKTICALICGRPIIKPEYFSEFLKAVESKKQPPDIESFYPPIDEPAIGSKSVDLSGRHERKQIFKGKTFVFLNAKQHKKLSSAVAFGGGEARLMAEDDEEEQSFFSAPGTCVVDVGITNTQLIISHSQKKWIHLIMDTLQRNGLRPIPEAEIGLAVIFMTTENYCNPQGQPCTELKTTTPGPSLSQVLSANGKIIPSAPVNMTTYVADTESEPADTCMPLSERPEEVKIPGLEQSSRKLSQETFNIKEAPKPSSKANNVASDTLVRGKTPSYQLSPMKFPVANKNKDWTSQQQQNSIKNYFQPCTRKRERDEDNPELSSCKSSRMELSCSLLEQTQPAGPSLWKSKEHQSQNATLDREADTSSVGGMDIELNRKSPDRKPLPTETLRPRKRKDVDLATEEEVLEELLRSTKPELAVQVKVEKQEADDTIRKKPRMDAERNRPLNGGSEPESNSALQEDEREKKDELQTESWSTKHEIANSDGLQDSSEELPRKLLLTEFRSLVVSNHNSTSRNLCVNECGPLKNFKKFKKATFPGAGKLPHIIGGSDLVGHHARKNTELEEWLKQEMEVQKQQAKEESLADDLFRYNPNVKRR
